# Assay: general procedure: peptide synthesis; H-Lys(Boc)-2-ClTrt resin; HATU/DIPEA
# Conditions: lipidation step, based on penta peptide intermediate 4, chloride
substance,measurement,value
CGKRK-lipopeptide 1,step yield,55%

# — US9944676 (dated 2018)
